Experimental data taken from the supplement of paper PMC10849652.
The list shows a part of the results.

Sequences of proteins named here, by UniProt entry; tags and fusion partners are left off. A change or cut given only in a name is not applied to a line headed by its entry.
UniProt Q8WXA9: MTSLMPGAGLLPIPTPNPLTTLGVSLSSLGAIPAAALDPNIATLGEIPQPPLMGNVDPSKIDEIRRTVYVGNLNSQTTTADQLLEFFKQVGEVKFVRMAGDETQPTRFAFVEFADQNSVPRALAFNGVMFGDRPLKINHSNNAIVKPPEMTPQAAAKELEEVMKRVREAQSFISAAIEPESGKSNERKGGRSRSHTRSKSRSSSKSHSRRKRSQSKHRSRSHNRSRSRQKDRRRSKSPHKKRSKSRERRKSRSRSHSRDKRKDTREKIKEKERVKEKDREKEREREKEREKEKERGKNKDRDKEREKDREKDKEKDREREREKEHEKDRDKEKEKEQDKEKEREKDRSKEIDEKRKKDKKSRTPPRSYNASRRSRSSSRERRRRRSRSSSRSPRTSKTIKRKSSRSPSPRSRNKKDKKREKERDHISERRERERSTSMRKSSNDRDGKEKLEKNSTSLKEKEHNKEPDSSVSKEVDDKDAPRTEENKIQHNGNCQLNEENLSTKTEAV
UniProt Q16629: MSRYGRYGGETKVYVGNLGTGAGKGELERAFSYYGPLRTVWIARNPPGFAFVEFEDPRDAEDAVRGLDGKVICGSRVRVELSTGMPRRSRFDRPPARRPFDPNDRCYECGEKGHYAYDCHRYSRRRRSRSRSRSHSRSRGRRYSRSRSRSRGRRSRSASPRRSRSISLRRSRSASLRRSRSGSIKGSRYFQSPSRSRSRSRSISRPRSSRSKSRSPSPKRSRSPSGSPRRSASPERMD
UniProt Q9UBP0: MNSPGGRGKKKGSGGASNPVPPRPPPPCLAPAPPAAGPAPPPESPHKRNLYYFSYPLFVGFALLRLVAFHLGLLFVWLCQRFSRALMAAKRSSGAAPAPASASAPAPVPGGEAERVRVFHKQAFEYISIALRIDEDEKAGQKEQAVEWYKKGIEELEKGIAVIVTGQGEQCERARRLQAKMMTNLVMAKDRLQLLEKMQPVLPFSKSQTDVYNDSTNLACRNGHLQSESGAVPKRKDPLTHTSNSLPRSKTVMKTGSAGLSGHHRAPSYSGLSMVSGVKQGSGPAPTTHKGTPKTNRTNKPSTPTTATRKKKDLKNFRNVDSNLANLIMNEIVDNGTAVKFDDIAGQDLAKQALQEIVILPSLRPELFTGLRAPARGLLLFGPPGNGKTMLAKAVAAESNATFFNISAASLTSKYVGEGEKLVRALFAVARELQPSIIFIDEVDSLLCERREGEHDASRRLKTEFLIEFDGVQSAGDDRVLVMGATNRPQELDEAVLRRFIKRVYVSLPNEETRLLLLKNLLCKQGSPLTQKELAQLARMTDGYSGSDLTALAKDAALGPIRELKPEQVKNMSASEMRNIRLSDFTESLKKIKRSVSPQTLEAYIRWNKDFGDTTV
UniProt Q5W111: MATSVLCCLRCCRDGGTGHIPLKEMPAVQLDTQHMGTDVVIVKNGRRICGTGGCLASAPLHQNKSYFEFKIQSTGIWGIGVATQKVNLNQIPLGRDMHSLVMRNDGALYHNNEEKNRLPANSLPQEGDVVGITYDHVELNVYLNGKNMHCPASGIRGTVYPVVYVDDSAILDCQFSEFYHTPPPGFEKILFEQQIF
UniProt Q8N1F8: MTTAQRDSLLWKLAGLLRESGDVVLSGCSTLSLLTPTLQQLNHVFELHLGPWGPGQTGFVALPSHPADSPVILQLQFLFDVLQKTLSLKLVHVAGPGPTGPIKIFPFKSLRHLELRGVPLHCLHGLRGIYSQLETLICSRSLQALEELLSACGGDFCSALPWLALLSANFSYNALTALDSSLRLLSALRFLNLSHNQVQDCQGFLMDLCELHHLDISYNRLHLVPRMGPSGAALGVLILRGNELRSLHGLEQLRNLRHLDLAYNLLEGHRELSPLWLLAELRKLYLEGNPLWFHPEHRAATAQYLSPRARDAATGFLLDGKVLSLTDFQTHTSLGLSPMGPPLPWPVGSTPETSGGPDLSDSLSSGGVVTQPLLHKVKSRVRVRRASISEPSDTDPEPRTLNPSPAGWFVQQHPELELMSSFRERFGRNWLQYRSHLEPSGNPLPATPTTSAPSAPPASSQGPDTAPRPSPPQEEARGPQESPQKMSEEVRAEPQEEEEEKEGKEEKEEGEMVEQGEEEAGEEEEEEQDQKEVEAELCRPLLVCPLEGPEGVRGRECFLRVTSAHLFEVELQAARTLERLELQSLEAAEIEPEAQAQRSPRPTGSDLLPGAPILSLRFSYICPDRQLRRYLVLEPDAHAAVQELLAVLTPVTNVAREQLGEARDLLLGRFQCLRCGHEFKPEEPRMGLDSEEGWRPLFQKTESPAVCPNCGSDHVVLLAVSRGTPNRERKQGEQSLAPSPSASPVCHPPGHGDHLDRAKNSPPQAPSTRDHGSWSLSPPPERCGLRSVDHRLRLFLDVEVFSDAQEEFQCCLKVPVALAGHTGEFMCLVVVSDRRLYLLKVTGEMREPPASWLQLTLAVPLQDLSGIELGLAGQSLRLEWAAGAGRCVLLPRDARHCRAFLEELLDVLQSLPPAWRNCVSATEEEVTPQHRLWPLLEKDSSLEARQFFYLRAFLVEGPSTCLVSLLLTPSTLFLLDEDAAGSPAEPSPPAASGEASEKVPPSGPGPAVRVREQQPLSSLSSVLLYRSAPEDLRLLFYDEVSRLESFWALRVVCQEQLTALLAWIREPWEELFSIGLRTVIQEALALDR
UniProt Q96EA4: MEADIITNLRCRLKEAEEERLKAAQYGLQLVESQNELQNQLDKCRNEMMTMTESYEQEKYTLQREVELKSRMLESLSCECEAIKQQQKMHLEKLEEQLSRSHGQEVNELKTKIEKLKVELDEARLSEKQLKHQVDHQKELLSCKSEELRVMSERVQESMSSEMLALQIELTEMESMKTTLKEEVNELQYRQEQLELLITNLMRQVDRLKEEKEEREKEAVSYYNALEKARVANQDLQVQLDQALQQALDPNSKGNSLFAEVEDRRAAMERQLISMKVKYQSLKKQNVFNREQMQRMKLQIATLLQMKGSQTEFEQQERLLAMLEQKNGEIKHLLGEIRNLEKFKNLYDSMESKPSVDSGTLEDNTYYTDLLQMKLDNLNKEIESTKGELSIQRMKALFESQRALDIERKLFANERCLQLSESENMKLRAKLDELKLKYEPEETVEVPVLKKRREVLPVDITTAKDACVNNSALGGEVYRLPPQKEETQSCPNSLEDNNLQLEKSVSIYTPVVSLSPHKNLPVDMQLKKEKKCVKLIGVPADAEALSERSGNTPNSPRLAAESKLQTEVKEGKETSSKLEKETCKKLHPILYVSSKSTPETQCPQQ
UniProt Q5M775: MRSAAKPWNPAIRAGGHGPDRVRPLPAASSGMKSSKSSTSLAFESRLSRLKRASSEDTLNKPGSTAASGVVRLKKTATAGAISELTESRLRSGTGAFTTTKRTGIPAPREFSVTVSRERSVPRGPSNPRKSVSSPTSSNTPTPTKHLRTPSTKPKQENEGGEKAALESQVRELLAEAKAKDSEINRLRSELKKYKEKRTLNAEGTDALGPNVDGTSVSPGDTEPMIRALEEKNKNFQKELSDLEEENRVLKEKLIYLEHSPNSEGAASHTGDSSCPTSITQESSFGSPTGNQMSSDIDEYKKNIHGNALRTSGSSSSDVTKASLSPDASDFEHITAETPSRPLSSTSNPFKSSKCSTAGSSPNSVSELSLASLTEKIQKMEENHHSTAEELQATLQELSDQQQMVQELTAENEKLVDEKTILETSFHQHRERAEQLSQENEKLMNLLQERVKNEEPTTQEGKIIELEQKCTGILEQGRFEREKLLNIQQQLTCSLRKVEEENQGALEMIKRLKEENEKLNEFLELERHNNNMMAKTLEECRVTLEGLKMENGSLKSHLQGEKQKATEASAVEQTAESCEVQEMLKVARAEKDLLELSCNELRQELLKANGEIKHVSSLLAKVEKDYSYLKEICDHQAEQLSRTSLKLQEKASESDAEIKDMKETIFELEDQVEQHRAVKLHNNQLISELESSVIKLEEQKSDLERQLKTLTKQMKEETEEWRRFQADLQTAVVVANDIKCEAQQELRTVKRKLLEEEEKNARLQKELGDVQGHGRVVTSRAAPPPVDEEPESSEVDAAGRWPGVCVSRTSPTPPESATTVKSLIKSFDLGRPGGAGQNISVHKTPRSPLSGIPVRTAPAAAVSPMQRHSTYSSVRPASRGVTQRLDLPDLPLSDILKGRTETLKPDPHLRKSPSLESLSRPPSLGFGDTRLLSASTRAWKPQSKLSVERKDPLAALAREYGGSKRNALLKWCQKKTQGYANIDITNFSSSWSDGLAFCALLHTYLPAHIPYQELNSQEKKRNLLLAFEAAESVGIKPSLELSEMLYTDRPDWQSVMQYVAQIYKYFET
UniProt Q8TCT8: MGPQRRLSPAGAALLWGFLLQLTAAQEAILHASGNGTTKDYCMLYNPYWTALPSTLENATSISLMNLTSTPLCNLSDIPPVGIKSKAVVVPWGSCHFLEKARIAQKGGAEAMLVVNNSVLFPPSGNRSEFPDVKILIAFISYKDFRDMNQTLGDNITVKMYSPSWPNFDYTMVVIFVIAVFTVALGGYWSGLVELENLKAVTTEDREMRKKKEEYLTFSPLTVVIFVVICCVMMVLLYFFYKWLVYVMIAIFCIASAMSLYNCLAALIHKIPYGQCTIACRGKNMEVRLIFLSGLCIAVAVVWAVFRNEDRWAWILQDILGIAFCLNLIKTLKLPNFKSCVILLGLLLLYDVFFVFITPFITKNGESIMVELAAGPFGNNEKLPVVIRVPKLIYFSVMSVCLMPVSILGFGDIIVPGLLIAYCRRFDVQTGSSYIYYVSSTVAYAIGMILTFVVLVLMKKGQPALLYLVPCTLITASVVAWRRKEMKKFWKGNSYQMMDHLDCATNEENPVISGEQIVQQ

Key:
Test in all cases: log2 fold change, soluble protein after heating vs DMSO (PISA); higher = thermal stabilisation; K562 cells, 10 uM, 30 min; active = over 0.2 and 3.5 SD of the protein, either way, in both replicates (recomputed)
[1] = compound: CC1=C(C=C(C=C1)NC(=O)C2=CC(=CC=C2)C(C)(C)C#N)NC3=CC4=C(C=C3)N=CN(C4=O)C
Method in brief: (§1)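 Values are thermal stability changes relative to control samples and are taken from duplicates. They are stated as log2 fold changes. Before quantification by TMTpro 16plex LC-MS/MS with equalised channel sums, K562 cells at 2×10^6 cells/mL were treated with 10 μM compound for 30 min, heated in aliquots for 3 min across 48°C-58°C, pooled, extracted in PBS with 0.5% NP-40 at 4°C, and centrifuged at 21,000xg for 90 min to give the soluble supernatant.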

[2] = compound: CC1=C(C=C(C=C1)NC(=O)C2=CC(=CC=C2)N(C)C)NC(=O)C3=CC=C(C=C3)O
Method in brief: as §1

[3] = compound: CC1=CC=C(C=C1)SC2=C3C=C(SC3=CN=C2)C(=O)N
Method in brief: as §1

[4] = compound: CC1=NC(=CC=C1)C2=C(N=C(N2)C(C)(C)C)C3=CC4=NC=CN=C4C=C3
Method in brief: as §1

Nexturastat A = compound: CCCCN(Cc1ccc(C(=O)NO)cc1)C(=O)Nc1ccccc1 [Nexturastat A]
Method in brief: as §1

vemurafenib = compound: CCCS(=O)(=O)Nc1ccc(F)c(C(=O)c2c[nH]c3ncc(-c4ccc(Cl)cc4)cc23)c1F [vemurafenib]
Method in brief: as §1

[5] = compound: CCCS(=O)(=O)Nc1ccc(F)c(C(=O)c2c[nH]c3ncc(Cl)cc23)c1F
Method in brief: as §1

[6] = compound: CCCc1cc(C)[nH]c(=O)c1CNC(=O)c1cc(-c2ccnc(N3CCN(C)CC3)c2)cc2c1cnn2C(C)C
Method in brief: as §1

givinostat = compound: CCN(CC)Cc1ccc2cc(COC(=O)Nc3ccc(C(=O)NO)cc3)ccc2c1 [givinostat]
Method in brief: as §1

barasertib = compound: CCN(CCCOc1ccc2c(Nc3cc(CC(=O)Nc4cccc(F)c4)[nH]n3)ncnc2c1)CCOP(=O)(O)O [barasertib]
Method in brief: as §1

[7] = compound: CC[C@@H]1C(=O)N(C)c2cnc(Nc3ccc(C(=O)NC4CCN(C)CC4)cc3OC)nc2N1C1CCCC1
Method in brief: as §1

volasertib = compound: CC[C@@H]1C(=O)N(C)c2cnc(Nc3ccc(C(=O)N[C@H]4CC[C@H](N5CCN(CC6CC6)CC5)CC4)cc3OC)nc2N1C(C)C [volasertib]
Method in brief: as §1

[8] = compound: CC[C@H](C)N1C=C(C2=C(C=C(C=C21)C3=CN=C(C=C3)N4CCNCC4)C(=O)NCC5=C(C=C(NC5=O)C)C)C
Method in brief: as §1

epoxomicin = compound: CC[C@H](C)[C@@H](C(=O)N[C@@H]([C@@H](C)O)C(=O)N[C@@H](CC(C)C)C(=O)[C@]1(CO1)C)NC(=O)[C@H]([C@@H](C)CC)N(C)C(=O)C [epoxomicin]
Method in brief: as §1

[9] = compound: CCn1c(C(=O)N(C2CC2)C2CC2)cc2c3c(ncn3C)c(Nc3cc(C)n(C)n3)nc21
Method in brief: as §1

[10] = compound: CCn1cc(-c2ccnc3[nH]c(-c4cccc(CN(C)C)c4)cc23)c(-c2ccc(NC(=O)N(C)C)cc2)n1
Method in brief: as §1

[11] = compound: CN(C)CC(=O)Nc1ccc2[nH]c(=O)c3ccccc3c2c1
Method in brief: as §1

rosiglitazone = compound: CN(CCOC1=CC=C(C=C1)C[C@H]2C(=O)NC(=O)S2)C3=CC=CC=N3 (racemic) [rosiglitazone]
Method in brief: as §1

[12] = compound: CN1C2=C(C3=C1C(=O)N(N=C3)CC4=CC(=CC=C4)N)SC(=C2)S(=O)C
Method in brief: as §1

[13] = compound: CN1CCC(CNc2ccc3ncc(-c4cccc(OC(F)(F)F)c4)n3n2)CC1
Method in brief: as §1

Row | Target | log2 fold change [1] | log2 fold change [2] | log2 fold change [3] | log2 fold change [4] | log2 fold change (Nexturastat A) | log2 fold change (vemurafenib) | log2 fold change [5] | log2 fold change [6] | log2 fold change (givinostat) | log2 fold change (barasertib) | log2 fold change [7] | log2 fold change (volasertib) | log2 fold change [8] | log2 fold change (epoxomicin) | log2 fold change [9] | log2 fold change [10] | log2 fold change [11] | log2 fold change (rosiglitazone) | log2 fold change [12] | log2 fold change [13]
1 | SPTBN2 (UniProt O15020) | inactive: 0.036 | inactive: 0.015 | inactive: -0.06 | inactive: -0.019 | inactive: 0.046 | inactive: 0.112 | inactive: 0.034 | inactive: 0.078 | inactive: 0.211 | inactive: -0.02 | inactive: 0.091 | inactive: -0.188 | inactive: 0.009 | inactive: -0.043 | inactive: -0.042 | inactive: 0.057 | inactive: 0.04 | inactive: -0.013 | inactive: 0.061 | inactive: 0.093
2 | SREK1 isoform 2 (UniProt Q8WXA9) | inactive: -0.335 | inactive: -0.083 | inactive: 0 | inactive: 0.045 | inactive: 0.108 | inactive: 0.019 | inactive: 0.096 | inactive: -0.069 | inactive: 0.062 | inactive: -0.057 | inactive: -0.122 | inactive: -0.22 | inactive: 0.037 | inactive: -0.021 | – | inactive: -0.098 | inactive: -0.029 | – | inactive: 0.026 | inactive: -0.035
3 | SRSF7 (UniProt Q16629) | inactive: 0 | inactive: 0.025 | inactive: -0.115 | inactive: -0.112 | inactive: 0.193 | inactive: -0.043 | inactive: -0.088 | inactive: 0.114 | inactive: 0.059 | inactive: -0.105 | inactive: 0.18 | inactive: 0.215 | inactive: -0.039 | inactive: -0.171 | – | inactive: 0.181 | inactive: -0.085 | – | inactive: 0.218 | inactive: 0.175
4 | SPAST (UniProt Q9UBP0) | inactive: -0.032 | inactive: -0.05 | inactive: 0.049 | inactive: 0.029 | inactive: -0.047 | inactive: 0.068 | inactive: 0.021 | inactive: 0.062 | inactive: 0.074 | inactive: 0.045 | inactive: -0.128 | inactive: -0.242 | inactive: 0.107 | inactive: 0.021 | – | inactive: 0.035 | inactive: 0.079 | – | inactive: -0.046 | inactive: -0.043
5 | SPRYD7 (UniProt Q5W111) | inactive: -0.051 | inactive: -0.017 | inactive: 0.023 | inactive: -0.016 | inactive: 0.026 | inactive: -0.025 | inactive: 0.019 | inactive: 0.074 | inactive: 0.02 | inactive: 0.002 | inactive: -0.031 | inactive: -0.246 | inactive: 0.05 | inactive: 0.011 | inactive: -0.026 | inactive: 0.082 | inactive: -0.036 | inactive: -0.02 | inactive: -0.082 | inactive: 0.058
6 | STK11IP (UniProt Q8N1F8) | inactive: 0.095 | – | inactive: 0.038 | inactive: -0.071 | inactive: 0.118 | inactive: -0.159 | inactive: 0.061 | inactive: 0.063 | inactive: -0.017 | inactive: 0.008 | inactive: -0.224 | active: -0.517 | inactive: 0.103 | inactive: 0.069 | – | inactive: -0.006 | inactive: 0.025 | – | inactive: 0.026 | inactive: -0.233
7 | SPDL1 (UniProt Q96EA4) | inactive: -0.206 | inactive: -0.258 | inactive: -0.193 | – | – | – | inactive: 0.213 | – | inactive: 0.282 | – | inactive: -0.092 | inactive: -0.282 | – | – | inactive: -0.321 | – | – | – | inactive: 0.23 | –
8 | SPECC1 (UniProt Q5M775) | inactive: -0.028 | inactive: -0.015 | inactive: 0.094 | inactive: -0.063 | inactive: -0.08 | inactive: -0.094 | inactive: -0.06 | inactive: -0.102 | inactive: 0.035 | inactive: 0.062 | inactive: 0.109 | inactive: 0.052 | inactive: -0.013 | inactive: -0.101 | – | inactive: 0.004 | inactive: -0.111 | – | inactive: 0.07 | inactive: -0.012
9 | SPPL2A (UniProt Q8TCT8) | inactive: -0.088 | inactive: 0.007 | inactive: -0.055 | inactive: -0.082 | inactive: -0.004 | inactive: 0.026 | inactive: 0 | inactive: 0.084 | inactive: 0.005 | inactive: 0.021 | inactive: 0.014 | inactive: 0.046 | – | inactive: 0.058 | inactive: -0.099 | inactive: 0.083 | inactive: -0.024 | inactive: -0.128 | inactive: 0.025 | inactive: -0.047

Whole records as entered above. Values in the order: log2 fold change [1]	log2 fold change [2]	log2 fold change [3]	log2 fold change [4]	log2 fold change (Nexturastat A)	log2 fold change (vemurafenib)	log2 fold change [5]	log2 fold change [6]	log2 fold change (givinostat)	log2 fold change (barasertib)	log2 fold change [7]	log2 fold change (volasertib)	log2 fold change [8]	log2 fold change (epoxomicin)	log2 fold change [9]	log2 fold change [10]	log2 fold change [11]	log2 fold change (rosiglitazone)	log2 fold change [12]	log2 fold change [13]
SPTBN2 (UniProt O15020) in the list: inactive: 0.036	inactive: 0.015	inactive: -0.06	inactive: -0.019	inactive: 0.046	inactive: 0.112	inactive: 0.034	inactive: 0.078	inactive: 0.211	inactive: -0.02	inactive: 0.091	inactive: -0.188	inactive: 0.009	inactive: -0.043	inactive: -0.042	inactive: 0.057	inactive: 0.04	inactive: -0.013	inactive: 0.061	inactive: 0.093
SPDL1 (UniProt Q96EA4) in the list: inactive: -0.206	inactive: -0.258	inactive: -0.193	–	–	–	inactive: 0.213	–	inactive: 0.282	–	inactive: -0.092	inactive: -0.282	–	–	inactive: -0.321	–	–	–	inactive: 0.23	–
